Reference: PubChem BioAssay AID1259254 (NCATS, 2017)
The whole screen tested about 59,000 reagents; below is a part drawn at random. In the full data, about 1,550 (2.6%) were called active. 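G2 share is only a proxy for re-replication; each gene was hit by three separate siRNAs, and active genes were retested.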 Reagents against one gene are numbered here. Further read-outs or replicates are left out here. No sequences are given here. The record does not give: the amount of reagent.

Test: 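Genome-wide screen for genes that prevent DNA re-replication in cancer cells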 (primary screen)
System: human HCT116 colorectal cancer cells
Reagents: single siRNA against human genes
Duration: 3 days
Measured: 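Imaged Hoechst DNA stain sorts each cell into a cycle phase by DNA amount; per plate, G2 fraction set to 0% for non-targeting and 100% for GMNN siRNA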
Scale: G2 robust z-score and G2 cells, % of GMNN control: higher = more G2 cells, more excess DNA replication
Active means: 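An siRNA counts as active if its G2 robust z-score lies at least 5 MADs above the screen median; here such calls match roughly 38% of GMNN control or more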

GOLGA7 #1 — G2 robust z-score = -0.694; G2 cells, % of GMNN control = -1.91; Call = inactive
GOLGA7 #2 — G2 robust z-score = -0.625; G2 cells, % of GMNN control = -1.43; Call = inactive
GOLGA7 #3 — G2 robust z-score = -1.18; G2 cells, % of GMNN control = -5.35; Call = inactive
MAP3K14 #1 — G2 robust z-score = -0.0307; G2 cells, % of GMNN control = 2.75; Call = inactive
MAP3K14 #2 — G2 robust z-score = 1.3; G2 cells, % of GMNN control = 12.1; Call = inactive
MAP3K14 #3 — G2 robust z-score = -0.0941; G2 cells, % of GMNN control = 2.31; Call = inactive

2 of these entries in another layout:
Target gene | siRNA no. | G2 robust z-score | G2 cells, % of GMNN control | Call
GOLGA7 | 2 | -0.625 | -1.43 | inactive
GOLGA7 | 3 | -1.18 | -5.35 | inactive

Further records follow.
PTCHD3P1 #1 — G2 robust z-score = -0.215; G2 cells, % of GMNN control = 1.46; Call = inactive
PTCHD3P1 #2 — G2 robust z-score = -0.952; G2 cells, % of GMNN control = -3.73; Call = inactive
PTCHD3P1 #3 — G2 robust z-score = -0.93; G2 cells, % of GMNN control = -3.58; Call = inactive
UBXN2A #1 — G2 robust z-score = -0.116; G2 cells, % of GMNN control = 2.15; Call = inactive
UBXN2A #2 — G2 robust z-score = -0.476; G2 cells, % of GMNN control = -0.382; Call = inactive
UBXN2A #3 — G2 robust z-score = 0.0366; G2 cells, % of GMNN control = 3.22; Call = inactive
